{"sequences": {"note": "Sequences of proteins named here, by UniProt entry; tags and fusion partners are left off.", "UniProt Q13283": "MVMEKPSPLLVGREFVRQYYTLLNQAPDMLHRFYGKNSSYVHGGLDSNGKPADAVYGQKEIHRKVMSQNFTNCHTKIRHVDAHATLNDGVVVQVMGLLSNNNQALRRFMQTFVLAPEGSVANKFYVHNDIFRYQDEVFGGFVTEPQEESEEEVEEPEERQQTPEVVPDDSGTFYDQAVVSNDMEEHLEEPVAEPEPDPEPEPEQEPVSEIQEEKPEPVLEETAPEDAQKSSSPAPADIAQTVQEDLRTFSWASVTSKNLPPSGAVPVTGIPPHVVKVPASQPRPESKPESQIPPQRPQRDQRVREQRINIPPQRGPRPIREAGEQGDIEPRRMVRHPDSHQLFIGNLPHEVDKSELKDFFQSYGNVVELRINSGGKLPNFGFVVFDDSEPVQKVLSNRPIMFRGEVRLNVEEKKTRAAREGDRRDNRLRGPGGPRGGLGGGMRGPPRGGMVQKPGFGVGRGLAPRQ"}, "source": "paper PMC11649915", "target": "GFP-tagged N protein of SARS-CoV (SARS-CoV) (UniProt P59595)", "assay": "co-IP", "note": "No constants are given. Whether binding was seen depends on the method and setting. In cells and extracts the contact can be indirect. Some binding calls cover weakened binding; strength is not graded here."}
{"substance": "endogenous G3BP1 (from UniProt Q13283 1-466)", "values": [{"measurement": "binding", "value": "binds"}]}
